PubChem BioAssay AID743121 | NCATS, 2013
Purpose: 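Knock-downs that sensitise breast cancer cells to camptothecin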 (primary screen). Cells: MDA-MB-231 cells, a human breast cancer line. Reagent: single siRNA against human genes, 20 nM siRNA (0.8 pmol per well). Timing: 120 h (drug added 48 h after transfection, read 72 h later). Treatment: camptothecin 20 nM (about EC30) for 72 h; vehicle 0.1% DMSO in parallel plates. Measurement: 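CellTiter-Glo ATP signal, scaled to control siRNA as percent viability; sensitisation given as log2 of untreated divided by camptothecin-treated viability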. Scale: log2 vehicle/camptothecin viability: higher = stronger sensitisation to camptothecin; viability with camptothecin and viability without drug: higher = more viable cells. Active means: 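Active genes have an RSA gene-level p-value below 0.001, computed from the ratios of their separate siRNAs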.
In all, the deposit lists about 26,000 reagents; this is a part drawn at random. Over the whole deposit, 167 (0.63%) got an active call. 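Calls are per gene from RSA p-values that are not deposited; an individual active-marked siRNA can sensitise only weakly.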 Unmarked entries are inactive. The numbers tell different reagents against one gene apart.

no.	Target gene	reagent	log2 vehicle/camptothecin viability	viability with camptothecin (% of control)	viability without drug (% of control)
1	FASLG	1	-0.098	92.3	86.2
2	FASLG	2	-0.0651	60.6	57.9
3	FASLG	3	0.0984	90.7	97.1
4	FASLG	4	-0.562	90.2	61.1
5	NTMT2	1	-0.212	102	88.3
6	NTMT2	2	-0.282	81.8	67.3
7	NTMT2	3	-0.296	130	106
8	CRHR2	1	0.0875	61.1	65
9	CRHR2	2	-0.0501	59	57
10	CRHR2	3	-0.52	96.1	67
11	CRHR2	4	0.224	64.8	75.7

Records above whose target name starts with N or n (3):
Target gene	reagent	log2 vehicle/camptothecin viability	viability with camptothecin (% of control)	viability without drug (% of control)
NTMT2	1	-0.212	102	88.3
NTMT2	2	-0.282	81.8	67.3
NTMT2	3	-0.296	130	106

The list goes on:
no.	Target gene	reagent	log2 vehicle/camptothecin viability	viability with camptothecin (% of control)	viability without drug (% of control)
12	BCS1L	1	-0.461	110	79.6
13	BCS1L	2	0.159	50.1	55.9
14	BCS1L	3	-0.0295	99.6	97.6
15	BCS1L	4	-0.366	77.8	60.4
16	BCS1L	5	-0.579	44.8	30
17	BCS1L	6	-0.363	103	79.7
18	BCS1L	7	0.778	47.5	81.4
19	BCS1L	8	0.503	49.4	70
20	CERK	1	0.376	67.5	87.6
21	CERK	2	-0.196	35.5	31
22	CERK	3	-0.57	95.5	64.3
23	CERK	4	-0.3	111	90.3
24	SFRP1	1	0.161	102	114
25	SFRP1	2	0.0283	105	107
26	SFRP1	3	0.31	57.1	70.8
27	SCARF1	1	0.758	36	60.9
28	SCARF1	2	-0.358	83.3	65
29	SCARF1	3	-0.383	131	100
